A: 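Whole-parasite assay of Trypanosoma brucei over 72 hours; the read-out is not stated. Tested at 30 µM. Direction is inferred from retests: higher values go with stronger inhibition. Values scatter widely below zero; nearly all retest evidence comes from the higher of the two concentrations used. Of about 64,000 compounds tested this way, about 940 (1.5%) reached 50% or more in at least one test.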
B: 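Cell assay of Leishmania donovani living inside macrophages; the read-out is not stated. Compounds at 30 µM. Higher reads as stronger inhibition (inferred: compounds with an IC50 in retests scored well above the rest). Of about 69,000 compounds tested this way, about 1,000 (1.5%) reached 50% or more in at least one test.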
C: 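Assay of Toxoplasma gondii numbers, read through their beta-galactosidase reporter with a colour substrate. Tested at 10 µM. Higher reads as fewer parasites (inferred from which compounds were picked for retests). Size under these conditions: about 67,000 compounds, about 260 of them at 50% or above in at least one test.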

Results are given as percent effect.
How 0% and 100% were set is not recorded. Most values in the screen are low, and negative values occur.
Compounds were drawn at random from those tested, without regard to their results.
A dash means the value is not listed here; it may have been measured.

Compound,A,B,C
O=C(O)C(F)(F)F.O=C(O)C(F)(F)F.[H][C@@]12OCCN(CC3CCOCC3)[C@@]1([H])CC[C@H]2OCCN1CCCC1,-27.36,-74.42,-1.134
Cc1nc(C)n(CC2CCCCN2CC(=O)NC(C2CC2)C2CC2)n1 (stereo not drawn),0.3077,8.771,-21.69
CC(C)(C)OC(=O)N1CCCN(c2nnc(Br)s2)CC1,-,-4.084,-27
O=C(CC1CCCO1)NCc1ccc(Br)cc1F (stereo not drawn),-23.11,-21.55,0.911
Nc1nnnn1NCc1cccc(Cl)c1Cl,-34.47,4.224,-22.33
Cn1nc(Br)c2c(NCCS(N)(=O)=O)ncnc21,-21.68,-5.159,-20.75
CN(CCc1ccccc1)Cc1c(C2CCOCC2)[nH]c2ncccc12,-15.46,-47.55,10.42
CCNc1ncc(CN(Cc2ccccc2)CC(C)CO)cn1 (stereo not drawn),9.017,11.07,11.3
OCc1ccncc1NCc1cnc(-c2ccccn2)s1,-11.1,26.01,0.3736
CC(=O)N1CCCN(C(=O)c2cnn(C(C)(C)C)c2C)CC1,-,23.02,-1.571
CCc1cnc(CN(C)C(=O)NC2CCN(C)C2=O)s1 (stereo not drawn),-35.55,-5.579,7.788
Cc1ccc(C(=O)NCCNS(C)(=O)=O)c(=O)[nH]1,2.205,11.65,3.637
Cc1cnn(CC2CCCN2C(=O)CCc2ccsc2)c1 (stereo not drawn),1.246,13.75,-11.75
O=c1nc(SCc2ccncc2)c2c(n1CCO)CCC2,10.88,26.29,7.647
CC(C)S(=O)(=O)NCC1CCCN(C(=O)c2ccc3c(c2)OCCO3)C1 (stereo not drawn),-43.08,12.64,5.911
CC(=O)N1CCC2(CC1)C(=O)N(C)c1ccc(F)cc12,0.7195,29.57,24.5
CSCCC(C)NC(=O)CCN1C(=O)CCc2cc(F)ccc21 (stereo not drawn),7.15,21.53,5.783
Cc1nc(C2CCCN2C(=O)CCn2cncn2)no1 (stereo not drawn),-,19.11,-34.31
COCC(O)CN1CC(C)(C)CN(C(=O)CCc2ccccc2)CC1=O (stereo not drawn),-31.95,-12,-19.25
Cc1ccc(C)c(OC2CCN(C(=O)c3ccc(O)nc3)CC2)c1,1.044,33.34,-22.02
COCCS(=O)(=O)Cc1nnnn1-c1ccccc1,-16.37,29.36,-3.426
CC(=O)NCCC(=O)NC1(c2ccc(Cl)c(Cl)c2)CC1,-10.6,16.76,7.436
Cc1c(C(C)N)cnn1-c1ccccn1 (stereo not drawn),10.31,-2.14,1.206
CCc1cnc(N2CCC3(CC(=O)N(Cc4csc(C)n4)C3)C2)nc1.O=C(O)C(F)(F)F (stereo not drawn),-13.45,-13.53,-23.01
Cn1cc(CN2CCCC(n3c(=O)oc4ccccc43)C2)cn1 (stereo not drawn),-3.278,3.319,-28.57
Cc1cc(CCC(=O)NCc2nccn2C)ccc1Br,-35.67,3.075,-3.249
c1cncc(-c2noc(CNCC3CCCN3c3cccnn3)n2)c1 (stereo not drawn),9.441,11.72,16.04
COCCn1cc(NC(=O)NC(C)CCc2ccccc2)ccc1=O (stereo not drawn),-37.26,-29.67,-3.029
CCn1ccnc1CN1CCN(C(C)C(=O)N2CCC(C)CC2)CC1 (stereo not drawn),21.74,35.96,4.093
CC(=O)Nc1ncc(-c2ccc(C)cc2)[nH]1,-19.75,-12.18,14.05
[H][C@@]12COC[C@H](c3nc(C)no3)[C@]1([H])CN(C(=O)COCC)C2,-36.72,-12.24,3.223
Cc1cc(C)c(CNC(=O)N2CCCC2c2cccc(F)c2)c(=O)[nH]1 (stereo not drawn),-19.21,-15.6,5.679
CSCC[C@H](N)c1nnc(SCc2cc(C)ccc2C)o1.Cl,-2.69,51.5,-
CN1CCN(C(=O)CCCc2ccccc2)CC(O)(Cn2cccn2)C1 (stereo not drawn),-35.65,-30.08,-30.39
CN(Cc1cc(F)cc2cccnc12)CC1CCN(CCO)CC1,0.1064,23.47,1.436
O=C(NCCCOCc1ccco1)c1cccnc1N1CCOCC1,-8.385,-22.03,13.57
Cc1nc(-c2ccccc2)sc1CSC(C)C(N)=O (stereo not drawn),18.09,-0.8586,-4.121
COc1cc(C(=O)NS(=O)(=O)c2cncc(Br)c2)cc(OC)c1C,-27.29,10.57,2.078
Cc1cc(Br)ccc1C(=O)NCCN1CCCCCC1,11.12,5.028,21.34
CCN(Cc1cnn(C)c1)C(=O)c1ccc(C)c(N2CCNC2=O)c1,-7.561,9.585,-13.63
CN(C)Cc1nnc(C2CCCN(Cc3ccc(Cl)s3)C2)n1C (stereo not drawn),-7.918,-29.64,3.325
COc1ccccc1CN(C)Cc1ccnc(C2CCCO2)n1 (stereo not drawn),-1.207,32.61,18.54
O=C(O)C(F)(F)F.O=C(O)C(F)(F)F.[H][C@]12CCC[C@@H](CN3CCOCC3)[C@@]1([H])CN(Cc1csnn1)C2,-100,10.33,13.02
COc1cc(NCCNC(=O)c2cc[nH]c2C)cc(OC)c1,-55.09,-21.6,7.903
Cn1cc(CN2CCC(CCC(=O)NCc3ccc(F)cc3)CC2)cn1,7.433,21.69,7.005
CC(C)(C)NC(=O)C[C@@H]1CCNC[C@@H]1Cc1cc(C(C)(C)C)on1,1.427,13.6,3.079
O=C(O)C(F)(F)F.c1coc(CN2CCc3onc(Cn4cccc4)c3C2)c1,-1.257,-1.35,12.19
CCOC(C)c1nc(CN2CCC(CNC(C)=O)CC2)cs1 (stereo not drawn),1.951,34.73,15
O=C(O)C(F)(F)F.O=C(O)C(F)(F)F.[H][C@]12CCN(Cc3ccc(C)cc3)[C@@]1([H])C[C@H](C(=O)N1CCN(C)CC1)O2,-14.95,35.31,0.3541
N#Cc1cn(C2CC2)c(=O)n(CC(O)c2ccccc2F)c1=O (stereo not drawn),2.338,9.957,-16.51
CCn1c(CN(C)C)nnc1C1CCN(Cc2cccc(C#N)c2)CC1,-28.99,22.87,-8.354
Cc1nc(C)n(CC2CN(Cc3cccnc3)CCO2)n1 (stereo not drawn),-20.86,14.17,-3.453

For reference, 5 entries once more:

* CN(C)Cc1nnc(C2CCCN(Cc3ccc(Cl)s3)C2)n1C (stereo not drawn) | A: -7.918%; B: -29.64%; C: 3.325%
* O=c1nc(SCc2ccncc2)c2c(n1CCO)CCC2 | A: 10.88%; B: 26.29%; C: 7.647%
* COc1cc(NCCNC(=O)c2cc[nH]c2C)cc(OC)c1 | A: -55.09%; B: -21.6%; C: 7.903%
* O=C(O)C(F)(F)F.c1coc(CN2CCc3onc(Cn4cccc4)c3C2)c1 | A: -1.257%; B: -1.35%; C: 12.19%
* CCn1ccnc1CN1CCN(C(C)C(=O)N2CCC(C)CC2)CC1 (stereo not drawn) | A: 21.74%; B: 35.96%; C: 4.093%

The values are deposited in ChEMBL (CHEMBL3988442, “University of Dundee, Small-Polar-MMV Screening Library” (2021)).